# Test results as given in PubChem BioAssay AID504467 (National Center for Advancing Translational Sciences (NCATS), 2011).
# Among all 330,000 compounds or so, about 7,700 (2.3%) were called active. The shares of active, inactive and inconclusive entries below differ from those in the screen. Calls follow the shape of the dose curve; as a rule, active = well fitted inhibition curve with a large enough effect; inconclusive = small, poorly fitted or top-dose-only effect, or effect the other way; inactive = flat fitted curve, though single readings scatter. A potency beside an inconclusive call is a rough fit, not a confirmed value.
# Assay: qHTS screen for small molecules that inhibit ELG1-dependent DNA repair in human embryonic kidney (HEK293T) cells expressing luciferase-tagged ELG1; also: nearly all actives have a fitted effect of over 55% in size
# Details: HEK293T ELG1-luciferase reporter, luminescence, 16 h, DNA damage induced by 5-fluorouridine; activity change, negative = inhibition: at 46.1 µM (top of the series)
# Procedure, shortened: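 Cells (2,000 per well) received 5-fluorouridine plus test compound or DMSO and were incubated 16 hr at 37 °C, 5% CO2. Luciferase activity was read by luminescence 30 min after ONE-Glo addition; signal suppression marked inhibition of damage-induced ELG1 function.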
# % is scaled to controls: 0 for no effect and ±100 for the full control effect; potency is read from the fitted curve at half-maximal effect.
Structure (SMILES),Potency,"activity change, negative = inhibition"
COc1cc2c(cc1OC)/C(=C/C(=O)c1ccccc1F)NCC2,"inconclusive: 10.3 µM [activator, partial curve, poor fit]",
C=CCCC(=O)Nc1ccc(Br)cn1,,inactive: -10.1%
O=C(O)/C=C/C(=O)NC1CCCCC1,,inactive: 13.4%
Cc1ccc(-c2nnn(CC(=O)N(c3cnc4ccccc4c3)C(C(=O)NC3CCCC3)c3ccncc3)n2)o1 (stereo not given),"inconclusive: 18.3 µM [inhibitor, single point]",
Cc1ccc(Oc2c(C)nc(-c3ccccc3)[nH]c2=O)cc1,"inconclusive: 13 µM [inhibitor, partial curve]",
Cc1noc(C)c1COc1ccc(C(=O)N2CCN(S(=O)(=O)c3ccccc3)CC2)cc1,"inconclusive: 16.4 µM [inhibitor, partial curve, poor fit]",
COc1ccc(NC(=O)CCS(=O)(=O)c2cc3c(cc2C)NC(=O)CO3)cc1,,inactive: 5.41%
COc1ccc(C(=O)c2ccc(Br)cc2)cc1,active: 1.16 µM,
O=C(CNC(=O)c1ccc(Br)o1)NCC1COc2ccccc2O1 (stereo not given),,inactive: 0%
CCOC(=O)C1(CCCc2ccccc2)CCN(C(=O)CCc2cnn(C)c2)CC1,"inconclusive: 20.6 µM [inhibitor, single point]",
COc1cc(NC(=O)c2cccnc2SC)cc(OC)c1OC,"inconclusive: 20.6 µM [activator, partial curve]",
Cc1ccc(C(=O)N2N=C(c3ccccc3O)CC2c2ccccc2)cc1 (stereo not given),,inactive: 7.38%
Cc1cc(C)c2nc(SCC#N)cc(C)c2c1,"inconclusive: 29.1 µM [inhibitor, partial curve, poor fit]",
Cc1ccc(N=C2C(=O)Nc3ccc(C)c(Br)c32)cc1,,inactive: 14.4%
CC1CC(=O)NN=C1c1ccc(N(C)C)c([N+](=O)[O-])c1 (stereo not given),"inconclusive: 20.6 µM [activator, single point]",
COc1ccccc1/C=C/C(=O)OCC(=O)N1c2ccccc2CC1C (stereo not given),"inconclusive: 6.51 µM [inhibitor, partial curve, poor fit]",
Cc1ccc(Cl)cc1NC(=O)CN1CCN(S(=O)(=O)N2CCOCC2)CC1,"inconclusive: 0.231 µM [inhibitor, single point]",
CC(C)CC(OC(=O)c1cccs1)C(=O)NCC1CCCO1 (stereo not given),,inactive: 6.91%
COc1ccccc1-n1cnc2cc(C(=O)NCc3ccco3)ccc21,,inactive: 0.315%
CN(C)C(CNC(=O)c1cccc(S(=O)(=O)NCc2ccccc2)c1)c1ccco1 (stereo not given),,inactive: 1.76%
Cc1occc1C(=O)Nc1cccc(C(=O)O)c1,"inconclusive: 7.31 µM [activator, partial curve]",
O=C(CSc1ccccc1)NCc1ccccn1,"inconclusive: 20.6 µM [activator, single point]",
Cc1ccc(C2C3=C(CC(C)(C)CC3=O)OC3=C2C(=O)CC(C)(C)C3)cc1,,inactive: 8.91%
O=C(Nc1ccccc1Cl)c1csc(-c2cccnc2)n1,"inconclusive: 14.6 µM [activator, partial curve]",
Cc1sc(NC(=O)C2=COCCO2)nc1-c1ccc(F)cc1,"inconclusive: 10.3 µM [activator, single point]",

Structure (SMILES),Potency,"activity change, negative = inhibition"
O=C(NCc1ccc(Cl)cc1)c1csc(-c2cccnc2)n1,"inconclusive: 18.3 µM [inhibitor, partial curve]",
CCCCNC(=O)c1ccc2c(OCC)n(CCCC)nc2c1,,inactive: -12.8%
CCc1ccc(CNC(=O)c2ccc3c(c2)NC(=O)C(N2CCOCC2)S3)cc1 (stereo not given),"inconclusive: 20.6 µM [inhibitor, single point]",
COc1cccc(CCN2CCC(CNS(=O)(=O)c3cc(-c4cc(C)no4)ccc3C)CC2)c1,,inactive: -9.19%
COC(=O)c1ccc(COc2ccc(NC(C)=O)cc2)o1,,inactive: 14.1%
CCc1cc2c(=O)[nH]c(Cc3ccccc3)nc2s1,"inconclusive: 23.1 µM [activator, single point]",
CCC(=O)Nc1cccc(-c2nnc(SCC(=O)c3ccccc3)n2C)c1,"inconclusive: 7.31 µM [activator, partial curve]",
COc1ccccc1/C=N/NC(=Nc1ccc(C)cc1)c1nc2ccccc2s1,"inconclusive: 20.6 µM [activator, partial curve]",
Cc1c(C(=O)N(C)Cc2ccccc2)oc2ccc(S(=O)(=O)N3CCCC3)cc12,"inconclusive: 16.4 µM [inhibitor, partial curve, poor fit]",
Cc1cc(C)cc(NC(=O)Nn2cnnc2)c1,"inconclusive: 32.6 µM [activator, partial curve, poor fit]",
N#Cc1ccccc1OCC(=O)NC(=O)NCc1ccco1,"inconclusive: 20.6 µM [activator, partial curve]",
O=C1CCc2cc(NS(=O)(=O)c3ccc(Br)cc3)cc3c2N1CC3,"inconclusive: 25.9 µM [activator, single point]",
CCC1CCCCN1C(=O)CCS(=O)(=O)c1ccccc1 (stereo not given),"inconclusive: 20.6 µM [activator, partial curve]",
Cc1ccc(NCc2ccc(O)c3ncccc23)cc1,,inactive: -10.6%
CC1Oc2ccccc2N(CC(=O)Nc2ccc3c(c2)OCCO3)C1=O (stereo not given),"inconclusive: 11.6 µM [activator, single point]",
COc1cc(/C=C/C(=O)OCC(=O)NCc2ccccc2OC)ccc1O,"inconclusive: 23.1 µM [inhibitor, single point]",
c1ccc(-c2noc(CC3CCCCC3)n2)cc1,"inconclusive: 29.1 µM [activator, single point]",
CC(=O)Nc1ccc(Nc2nc(-c3ccccc3)nc3ccccc23)cc1,"inconclusive: 20.6 µM [inhibitor, single point]",
Cc1ccc2nc(-c3ccc(NC(=O)COC(=O)c4ccc([N+](=O)[O-])o4)cc3)sc2c1,"inconclusive: 0.731 µM [activator, full curve]",
Fc1cccc(/C=N/Nc2nccnc2Cl)c1,"inconclusive: 6.51 µM [activator, partial curve]",
O=C(CN1C(=O)C2CC=CCC2C1=O)OCC(=O)c1ccc(Cl)c([N+](=O)[O-])c1 (stereo not given),,inactive: 13.4%
Cc1nnsc1S(=O)c1ccc(Cl)cc1 (stereo not given),"inconclusive: 18.3 µM [activator, single point]",
O=C(COC(=O)c1cccs1)Nc1cccc(Cl)c1,,inactive: 20.3%
O=C(Cc1ccccc1)Nc1ccc2[nH]ncc2c1,"inconclusive: 9.2 µM [inhibitor, partial curve, poor fit]",
COc1ccccc1CN1CCNC(=O)C1CC(=O)N(C)Cc1nc(C)cs1 (stereo not given),,inactive: 0.221%

# Fetched by compound from the entries so far, three records:
Structure (SMILES),Potency,"activity change, negative = inhibition"
Cc1ccc2nc(-c3ccc(NC(=O)COC(=O)c4ccc([N+](=O)[O-])o4)cc3)sc2c1,"inconclusive: 0.731 µM [activator, full curve]",
O=C(COC(=O)c1cccs1)Nc1cccc(Cl)c1,,inactive: 20.3%
CCc1ccc(CNC(=O)c2ccc3c(c2)NC(=O)C(N2CCOCC2)S3)cc1 (stereo not given),"inconclusive: 20.6 µM [inhibitor, single point]",

# More entries follow:

Structure (SMILES),Potency,"activity change, negative = inhibition"
COc1ccc([C@H]2CC(=O)C=C(c3cc4ccccc4s3)C2)cc1,"inconclusive: 20.6 µM [activator, single point]",
COC(=O)c1ccccc1NC(=O)c1ccc(-c2ccccc2F)o1,"inconclusive: 3.26 µM [activator, partial curve]",
O=C(c1ccccc1)c1coc2c1C(=O)c1ccccc1C2=O,"inconclusive: 1.3 µM [inhibitor, full curve]",
O=[N+]([O-])c1ccc(CS(=O)(=O)c2ncn[nH]2)cc1,,inactive: 6.57%
CC(C)c1cc(C(=O)NCCc2ccccc2)no1,"inconclusive: 13 µM [activator, partial curve]",
Cc1ccc(-c2csc(NC(=S)NC(=O)c3cccs3)n2)cc1,,inactive: -4.62%
Cc1ccc(-n2cc(CN3CCN(C(=O)c4ncn[nH]4)CC3)c(-c3ccc(F)cc3)n2)cc1,active: 20.6 µM,
COc1ccc(C(=O)COC(=O)CCC(=O)Nc2ccc(C(C)=O)cc2)cc1,"inconclusive: 18.3 µM [activator, single point]",
COc1cc2c(cc1OC)CN(C(=O)c1cc(=O)c3ccccc3o1)CC2,active: 8.2 µM,
CCOC(=O)C1CCN(S(=O)(=O)c2cccc(-c3cn4cccnc4n3)c2)CC1,active: 13 µM,
CCCOc1ccccc1C1NC(=O)NC(C)=C1C(=O)OCc1ccccc1 (stereo not given),active: 16.4 µM,
CN1C(=O)CC(Sc2ccccc2C(=O)O)C1=O (stereo not given),,inactive: 3.04%
COc1ccc(C(=O)NC2CC(C)(C)Cc3c2cnn3-c2ccccc2C)o1 (stereo not given),,inactive: 4.8%
Cc1ccc(C)c(S(=O)(=O)NCc2ccc(C(=O)N3CCN(C)CC3)cc2)c1,,inactive: 4.22%
Cc1ccc(SCC(=O)NCCCc2ccccc2)cc1,"inconclusive: 4.11 µM [inhibitor, single point]",
O=C(NCC(c1ccco1)N1CCc2ccccc21)c1ccccc1Cl (stereo not given),"inconclusive: 8.2 µM [inhibitor, single point]",
O=C1Nc2ccccc2C12Nc1ccccc1-c1nc3ccccc3n12 (stereo not given),active: 14.6 µM,
Cc1ccccc1C(=O)NC(=S)Nc1ccccc1C(=O)O,,inactive: 0%
COc1cccc(C(=O)C2CCCN(CC3=Cc4cc(OC)ccc4OC3)C2)c1 (stereo not given),"inconclusive: 18.3 µM [inhibitor, partial curve, poor fit]",
COCC1CCCCN1C(=O)C1CCN(c2nc(-c3ccccc3)nc3c2CCC3)CC1 (stereo not given),"inconclusive: 20.6 µM [inhibitor, single point]",
COc1ccc(N=Cc2nc(-c3ccco3)oc2O)cc1,"inconclusive: 25.9 µM [activator, single point]",
CCC(C)(C)NC(=O)C(c1ccc(OC)cc1)N(C(=O)CCC(=O)Nc1cc(C)on1)c1ccccc1F (stereo not given),,inactive: 4.72%
COCCn1c(SCC(=O)/C=C2\N(C)c3ccccc3C2(C)C)nnc1-c1ccncc1,active: 20.6 µM,
COc1ccc(SC[C@H](CC(C)C)N2CCN(CCc3ccccc3)CCC2=O)cc1,,inactive: -12.3%
O=C(c1cc2c(s1)-c1ccccc1OC2)N1CCN(c2ccccn2)CC1,"inconclusive: 23.1 µM [inhibitor, single point]",
